Measured values published in patent US20080044436A1, “Method for Screening and Compositions for Treating Cancers” (priority 2004, published 2008).
Results are given in words; binding and its absence hold for the method and conditions named. Binding seen in cells or lysates may run through a third protein. Binding can be weak; no strength is given. Sequences can lack the tags named with a protein.

Molecular target: Estrogen receptor (ER)
Assay: GST pull-down on glutathione-Sepharose, 35S-labelled ER

binding: binds
B1: GST-TReP-132 wt fusion protein (protein, not shown: a dimerising Fc or GST; large carriers; small tags and cut ends)
chain: MGDQQLYKTNHVAHGSENLFYQQPPLGVHSGLNHNYGNAVTGGGMDAPQASPISPHFPQDTRDGLGLPVGSKNLGQMDTSRQGGWGSHAGPGNHVQLRGNLANSNMMWGAPAQAEPTDGYQYTYSQASEIRTQKLTSGVLHKLDSFTQVFANQNLRIQVNNMAQVLHTQSAVMDGAPDSALRQLLSQKPMEPPAPAIPSRYQQVPQQPHPGFTGGLSKPALQVGQHPTQGHLYYDYQQPLAQVPVQGGQPLQAPQMLSQHMQQMQQHQYYPPQQQQQAGQQRISMQEIQTQPQQIRPSQPQPPPQQQQPQQLQLQQRQGSMQIPQYYQPQPMMQHLQEQQQQQMHLQPPSYHRDPHQYTPEQAHTVQLIPLGSMSQYYYQEPQQPYSHPLYQQSHLSQHQQREDSQLKTYSSDRQAQAMLSSHGDLGPPDTGMGDPASSDLTRVSSTLPHRPLLSPSGIHLNNMGPQHQQLSPSAMWPQMHLPDGRAQPGSPESSGQPKGAFGEQFDAKNKLTCSICLKEFKNLPALNGHMRSHGGMRASPNLKQEEGEKVLPPQPQPPLPPPPPPPPPPQLPPEAESLTPMVMPVSVPVKLLPPKPSSQGFTNSTVAAPSARDKPASSMSDDEMPVLEIPRKHQPSVPKAEEPLKTVQEKKKFRHRPEPLFIPPPPSYNPNPAASYSGATLYQSQLRSPRVLGDHLLLDPTHELPPYTPPPMLSPVRQGSGLFSNVLISGHGPGAHPQLPLTPLTPTPRVLLCRSNSIDGSNVTVTPGPGEQTVDVEPRINIGLRFQAEIPELQDISALAQDTHKATLVWKPWPELENHDLQQRVENLLNLCCSSALPGGGTNSEFALHSLFEAKGDVMVALEMLLLRKPVRLKCHPLANYHYAGSDKWTSLERKLFNKALATYSKDFIFVQKMVKSKTVAQCVEYYYTWKKIMRLGRKHRTRLAEIIDDCVTSEEEEELEEEEEEDPEEDRKSTKEEESEVPKSPEPPPVPVLAPTEGPPLQALGQPSGSFICEMPNCGAVFSSRQALNGHARIHGGTNQVTKARGAIPSGKQKPGGTQSGYCSVKSSPSHSTTSGETDPTTIFPCKECGKVFFKIKSRNAHMKTHRQQEEQQRQKAQKAAFAAEMAATIERTTGPVGAPGLLPLDQLSLIKPIKDVDILDDDVVQQLGGVMEEAEVVDTDLLLDDQDSVLLQGDAEL
modifications: N-terminal GST fusion (pGEX-2TK) is left out of the letters
